Article PMC8176221, “Identification and Characterization of Two Transmembrane Proteins Required for Virulence of Ustilago maydis” (Frontiers in Plant Science, 2021)
These are yes or no findings as the source states them, for the method shown.

Sequences of proteins named here, by UniProt entry; tags and fusion partners are left off. Residues count along the entry.
UniProt A0A0D1CVX2, residues 120-335: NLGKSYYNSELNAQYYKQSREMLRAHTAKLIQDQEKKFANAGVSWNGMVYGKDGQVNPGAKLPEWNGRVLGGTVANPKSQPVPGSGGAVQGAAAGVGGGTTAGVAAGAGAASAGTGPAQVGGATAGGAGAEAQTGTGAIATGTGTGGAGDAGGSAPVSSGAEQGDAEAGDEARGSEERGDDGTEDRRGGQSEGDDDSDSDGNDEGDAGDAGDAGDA

Biological target: C-terminal domain (CTD) of Vmp2 (aa 120-335) (Ustilago maydis)
Assay: SEC-MALS; Tag-free Vmp2CTD in HEPES buffer (20 mM HEPES, 200 mM NaCl, 20 mM KCl, pH 7.5); Superdex 75 Increase 10/300 (results); 100 μl of a 50 μM protein solution injected; both purified

C-terminal domain (CTD) of Vmp2 (aa 120-335) (from UniProt A0A0D1CVX2 120-335) (domain or fragment)
binding: no binding (tested: 50 μM protein solution injected)
